# About 4,300 (3.1%) of roughly 140,000 compounds were called active. This list was built around the results that the source calls inconclusive (neither active nor inactive); the mix of calls is not that of the screen.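 The calls were made as follows: active = readout at or below -70, meaning at least 70% loss of cells showing the perinucleolar compartment, a nuclear body marking cancer cells; inconclusive = readout between -30 and a set limit; inactive = the rest.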
# Test: High Content Assay for Compounds that inhibit the Assembly of the Perinucleolar Compartment;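 also: plate controls were DMSO wells for no effect and camptothecin positive control wells for full effect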
# Conditions: PC3M PTB-GFP, PNC prevalence imaging, 16 h; at 10 µM; active compounds read low
# Outline: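 Read-out is percentage of cells bearing a perinucleolar compartment, from automated 20x imaging of fixed, Hoechst-stained PC3M PTB-GFP cells. Cells were seeded 4 h, then exposed 16 h to compound (23 nl of library stock) in duplicate plates.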
row,Structure (SMILES),"activity change (PNC), negative = inhibition"
1,O=C1Nc2c(c(=O)[nH]c(=O)n2-c2ccccc2)C1(Nc1ncccn1)C(F)(F)F (centres undefined),inconclusive: -34.2%
2,Cc1cccc(NC(=O)c2cn(-c3ccccc3)nc2-c2ccccc2)c1,inactive: 32%
3,CCN(CC)S(=O)(=O)c1ccc2c3c(cccc13)C(=O)N2,inactive: 6.6%
4,CCCC(=O)Nc1cccc(NC(=O)c2ccc([N+](=O)[O-])cc2Cl)c1,inconclusive: -65.2%
5,COc1ccc2c(Cl)c(C(=O)NCCCn3ccnc3)sc2c1Cl,inconclusive: -50.7%
6,Cc1cccn2cc(CNC(=O)C3CCCCC3)nc12,active: -100%
7,COc1cc2c(cc1OC)-c1nnc(C)n1C(C)(C)C2,inactive: 11.4%
8,Cc1ccc(-n2ncc3c(=O)n(CC(=O)NCc4ccco4)cnc32)cc1C,inactive: -22.5%
9,Cc1ccc(/C=N/n2c(-c3ccncc3)n[nH]c2=S)cc1,inconclusive: -55.4%
10,Cc1ccc(-c2nc(-c3ccccc3)no2)cc1,inactive: 6.75%
11,O=C1C2C3C=CC(C4CC34)C2C(=O)N1/N=C/c1ccc(-c2ccc(F)cc2[N+](=O)[O-])o1 (centres undefined),inconclusive: -53%
12,C=CCn1c(COc2ccccc2F)nnc1SCC(=O)c1c[nH]c2ccccc12,inactive: -29.7%
13,Cc1ccc(S(=O)(=O)c2c(C)cc(C)nc2Cl)cc1,inconclusive: -51%
14,CCOc1ccc(S(=O)(=O)N2CCN(c3ccccc3)CC2)c2cccnc12,inconclusive: -68.8%
15,CN(CC(=O)Nc1ccc2c(c1)OCCO2)S(=O)(=O)c1cccc2cccnc12,inconclusive: -30.4%
16,COc1ccccc1-n1c(SCC(=O)NC2CCCCC2)nc2c(c1=O)SCC2,inconclusive: -46.8%
17,COc1ccc2nc(NC(=O)c3ccc(NS(=O)(=O)c4cccs4)cc3)sc2c1,inconclusive: -42.7%
18,COc1ccc(OC)c(-n2c(=S)[nH]c3cc(C(=O)N4CCC(C(N)=O)CC4)ccc3c2=O)c1,inconclusive: -39.4%
19,CN/S(=N/S(=O)(=O)c1ccccc1)c1ccc(C)cc1 (centres undefined),inactive: 20.2%
20,COC(=O)c1cc(=O)n(CCc2ccccc2)c(=Nc2ccc(F)cc2)s1,active: -82.8%

row,Structure (SMILES),"activity change (PNC), negative = inhibition"
1,O=C(O/N=C1\CCCc2ccccc21)c1cccc(Cl)c1,inconclusive: -38.8%
2,CCOC(=O)CCCNC(=O)COC(=O)c1ccc(O)cc1,inactive: 42.2%
3,Cc1cc(NC(=O)CSc2nnc(NC(=O)C3CC(=O)N(c4ccccc4)C3)s2)no1 (centres undefined),inactive: 25.3%
4,COCCCNC(=O)CCSc1ccc(C)cc1,inconclusive: -39.4%
5,CC1CCCCC1NC(=S)Nc1ccc(SC(F)F)cc1 (centres undefined),inconclusive: -33.7%
6,CCOC(=O)N1CCN(Cc2nc(-c3ccccc3)no2)CC1,inconclusive: -52.8%
7,CC1(C)Cc2c(C#N)c(OCC(=O)c3ccc(Cl)cc3)nc(-c3ccoc3)c2CO1,active: -94.1%
8,CCOc1ccccc1CNc1ccc(N2CCOCC2)c(C(=O)O)c1,inconclusive: -36.3%
9,Cc1ccc(-n2c([O-])nc(-[n+]3ccccc3)c2C=O)cc1,inactive: -6.63%
10,Cc1nc(-c2ccccc2)sc1C(=O)CSc1ccc(Cl)cc1,inconclusive: -60.5%
11,CCOC(=O)c1c(C)[nH]c(C(=O)N/N=C\c2ccccc2Cl)c1C,inconclusive: -57.7%
12,COc1ccccc1C(=O)N/C(=C\c1ccc(Br)cc1)C(=O)NCC(=O)O,inactive: 23.1%
13,COc1ccccc1-c1nn2c(-c3ccccc3Cl)nnc2s1,inactive: -25.1%
14,CCOC(=O)C1=C(c2ccccc2)N=C2SCC(=O)N2C1c1ccc(OC)c(OC)c1 (centres undefined),inactive: 31.5%
15,OC1CN=C2C=CC=CN2C1 (centres undefined),inconclusive: -33.9%
16,C/C=C/Cn1c(Br)nc2c1c(=O)n(C)c(=O)n2C,inconclusive: -71.9%
17,COC(=O)c1ccccc1COn1c(=O)c[n+]([O-])c2ccccc21,inconclusive: -31.3%
18,COc1ccc(OC)c2[nH]c(=O)c(CCNC(=O)c3ccc(Br)o3)cc12,inconclusive: -35.8%
19,COC(=O)c1[nH]c2ccc(C)cc2c1NC(=O)CN1CCCc2ccccc21,inactive: -15.7%
20,CON(c1nc(N(C)C)nc(N(C)C)n1)S(=O)(=O)c1ccccc1Cl,active: -100%

# Some of these compounds in order of length of the SMILES, largest number first:
row,Structure (SMILES),"activity change (PNC), negative = inhibition"
7,CC1(C)Cc2c(C#N)c(OCC(=O)c3ccc(Cl)cc3)nc(-c3ccoc3)c2CO1,active: -94.1%
14,CCOC(=O)C1=C(c2ccccc2)N=C2SCC(=O)N2C1c1ccc(OC)c(OC)c1 (centres undefined),inactive: 31.5%
18,COc1ccc(OC)c2[nH]c(=O)c(CCNC(=O)c3ccc(Br)o3)cc12,inconclusive: -35.8%
19,COC(=O)c1[nH]c2ccc(C)cc2c1NC(=O)CN1CCCc2ccccc21,inactive: -15.7%
20,CON(c1nc(N(C)C)nc(N(C)C)n1)S(=O)(=O)c1ccccc1Cl,active: -100%
17,COC(=O)c1ccccc1COn1c(=O)c[n+]([O-])c2ccccc21,inconclusive: -31.3%
9,Cc1ccc(-n2c([O-])nc(-[n+]3ccccc3)c2C=O)cc1,inactive: -6.63%
8,CCOc1ccccc1CNc1ccc(N2CCOCC2)c(C(=O)O)c1,inconclusive: -36.3%
10,Cc1nc(-c2ccccc2)sc1C(=O)CSc1ccc(Cl)cc1,inconclusive: -60.5%
6,CCOC(=O)N1CCN(Cc2nc(-c3ccccc3)no2)CC1,inconclusive: -52.8%
16,C/C=C/Cn1c(Br)nc2c1c(=O)n(C)c(=O)n2C,inconclusive: -71.9%
2,CCOC(=O)CCCNC(=O)COC(=O)c1ccc(O)cc1,inactive: 42.2%
5,CC1CCCCC1NC(=S)Nc1ccc(SC(F)F)cc1 (centres undefined),inconclusive: -33.7%
4,COCCCNC(=O)CCSc1ccc(C)cc1,inconclusive: -39.4%
15,OC1CN=C2C=CC=CN2C1 (centres undefined),inconclusive: -33.9%

# (further entries)

row,Structure (SMILES),"activity change (PNC), negative = inhibition"
1,CCOC(=O)CNC(c1ccccc1)c1cc(Br)ccc1NC(=O)CCN1CCOCC1 (centres undefined),inactive: -17.7%
2,N#Cc1cc2ccc(N3CCOCC3)cc2cc1C#N,inconclusive: -56.4%
3,[O-]/[N+](=C/c1cccnc1)c1ccc(Br)cc1,inactive: -8.79%
4,CCNc1[nH]c(=O)n(C)c(=O)c1N=O,inconclusive: -44%
5,S=c1nc[nH]c2c1sc1nc(-c3ccccc3)c3c(c12)CCCC3,inactive: -20.6%
6,CCC1=NNc2cccc3c(OC)ccc1c23,inactive: 30.4%
7,CCn1nc(C)c(NC(=O)/C=C/c2cnn(C)c2C)c1C,inactive: 44%
8,CCOC(=O)C1CCCN(C(=O)Nc2ccccc2)C1 (centres undefined),inactive: -8.97%
9,O=C(NCCCn1ccnc1)Nc1ccc(Cl)cc1,inconclusive: -38.1%
10,Cc1cc(Nc2cccc([N+](=O)[O-])c2)n2c(nc3ccccc32)c1C#N,inactive: -9.35%
11,CCOC(=O)N1CCc2c(sc(NC(=O)c3ccc(S(=O)(=O)N4CCCC4)cc3)c2C#N)C1,inconclusive: -38.9%
12,COc1ccc(C2=C/C(=C/c3cccnc3)C(=O)O2)cc1OC,inconclusive: -51.4%
13,O=C(O)CCn1nnc(-c2cccs2)n1,active: -105%
14,O=C(CNC(=S)NC(=O)c1cccc([N+](=O)[O-])c1)c1ccccc1,inconclusive: -31.9%
15,CCOCCCNC(=O)C(c1ccccc1)N(Cc1cccs1)C(=O)CNC(C)=O (centres undefined),inconclusive: -72.1%
16,Cc1cc(N2CCN(S(=O)(=O)Cc3ccccc3)CC2)n2ncnc2n1,active: -99.2%
17,O=P(/C(=N/O)Sc1ccccc1)(N1CCOCC1)N1CCOCC1,inconclusive: -77.4%
18,CCOC(=O)c1cnc(SC)nc1Oc1cccc(NC(=O)c2ccc(C)cc2)c1,inconclusive: -65.4%
19,CC1(C)CC2CC(C)(CN2C(=O)c2cc(-c3ccccc3O)on2)C1 (centres undefined),inconclusive: -43.4%

# From PubChem BioAssay AID2417 (National Center for Advancing Translational Sciences (NCATS), 2010)
